# Measurements reported in PubChem BioAssay AID1259254 (NCATS, 2017)
# Screen: 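Genome-wide screen for genes that prevent DNA re-replication in cancer cells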 (primary screen)
# Cells: human HCT116 colorectal cancer cells
# Reagents: single siRNA against human genes
# Duration: 3 days
# Measured: 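Nuclei stained with Hoechst and imaged; cell-cycle phase assigned by DNA content; G2 share scaled per plate, non-targeting siRNA 0%, GMNN siRNA 100%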
# Direction: G2 robust z-score and G2 cells, % of GMNN control: higher = more G2 cells, more excess DNA replication; raw share of cells in G2: higher = larger share of cells with G2 DNA content
# Active means: 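Active siRNAs have a G2 robust z of 5 or more median absolute deviations over the median, which in these data means about 38% or higher of GMNN control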
# Here is an unselected part of about 59,000 reagents tested. In the full data, about 1,550 (2.6%) were called active. 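G2 share is only a proxy for re-replication; each gene was hit by three separate siRNAs, and active genes were retested.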 The raw values are shown without normalisation. A number with no mark means an inactive call. The numbers tell different reagents against one gene apart. Reagent sequences are not shown. Not stated in the record: the amount of reagent.
gene,reagent,G2 robust z-score,"G2 cells, % of GMNN control",raw share of cells in G2 (%)
CRTAC1,1,-0.475,-0.374,2.66
CRTAC1,2,-1.43,-7.07,2.72
CRTAC1,3,3.99,31,13.4
SNX10,1,7.17 (active),53.4,21.6
SNX10,2,0.42,5.92,8.58
SNX10,3,-0.309,0.795,3.88
VIL1,1,0.189,4.3,7.41
VIL1,2,0.704,7.92,7.21
VIL1,3,0.513,6.58,6.64
CNOT10,1,0.205,4.41,6.07
CNOT10,2,1.35,12.5,9.35
CNOT10,3,0.648,7.52,5.93

Already shown: 3 of the entries above.
gene,reagent,G2 robust z-score,"G2 cells, % of GMNN control",raw share of cells in G2 (%)
SNX10,1,7.17 (active),53.4,21.6
SNX10,2,0.42,5.92,8.58
SNX10,3,-0.309,0.795,3.88

Additional results follow.
gene,reagent,G2 robust z-score,"G2 cells, % of GMNN control",raw share of cells in G2 (%)
CLCN6,1,-0.491,-0.484,4.62
CLCN6,2,1.15,11.1,9.32
CLCN6,3,-0.823,-2.82,3.27
NCOR1,1,2.32,19.3,12.5
NCOR1,2,3,24.1,14.5
NCOR1,3,-0.0416,2.67,4.11
NCKAP1,1,4.59,35.2,18.8
NCKAP1,2,1.2,11.4,8.85
NCKAP1,3,0.631,7.41,5.95
ALOX12,1,-0.0726,2.46,4.91
ALOX12,2,0.532,6.71,7
ALOX12,3,-1.04,-4.35,3.53
LGALSL,1,0.825,8.77,7.2
LGALSL,2,3.33,26.4,14.5
LGALSL,3,0.0854,3.57,4.38
SUGCT,1,0.0851,3.57,5.92
SUGCT,2,-0.334,0.62,4.57
SUGCT,3,-1.08,-4.65,1.11
